Data source: PubChem BioAssay AID743448 (Peter MacCallum Cancer Centre, 2014)
Purpose: 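Find knock-downs giving vorinostat-specific cell death in several colon cancer lines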 (follow-up of hits). System: four human colon cancer cell lines: HCT116-VR (vorinostat-resistant HCT116 derivative), SW480, SW620 and LIM1215. Knock-down reagent: siRNA pool against human genes, 40 nM siRNA pool. Timing: drug added two days after transfection, read one day later. Challenge: vorinostat 2.5 µM on one half of each plate, etoposide 5 µM on the other half. Measured: 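Caspase luminescence and viability fluorescence, each expressed relative to mock transfection and also as robust z-scores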. Scale: caspase ratio to mock: higher = more caspase activity than mock; viability ratio to mock: higher = more live cells than mock; caspase robust z-score: higher = more caspase activity, more apoptosis; viability robust z-score: higher = more live cells. Rule for the call: 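a row is a hit if caspase relative to mock is 1.6 or above or viability relative to mock is 0.75 or below; wells dying heavily without drug are not called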. Calls: active = caspase or viability hit in this panel; inactive = no change, or unhealthy well.
Here is one part, drawn at random, of 106 reagents tested. 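Calls are per line and drug panel including etoposide, not vorinostat-specific; gene picks needed hits in two or more extra lines with vorinostat versus etoposide.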 A number with no mark means an inactive call.

gene symbol	cell line and drug panel	caspase ratio to mock	viability ratio to mock	caspase robust z-score	viability robust z-score
CDK10	LIM1215 cells with etoposide	4 (active)	0.93	2	0.05
CDK10	LIM1215 cells with vorinostat	2.21 (active)	1.04	0.18	0.87
CDK10	SW480 cells with etoposide	2.34 (active)	0.91	0.22	0.32
CDK10	SW480 cells with vorinostat	1.64 (active)	0.96	-0.16	0.51
CDK10	SW620 cells with etoposide	1.54	0.86	0.84	-0.31
CDK10	SW620 cells with vorinostat	1.86 (active)	1.04	1.44	0.92
CDK10	vorinostat-resistant HCT116 cells with etoposide	1.19	1.01	-0.7	0.52
CDK10	vorinostat-resistant HCT116 cells with vorinostat	2.48 (active)	1.16	0.38	1.52
CCDC59	LIM1215 cells with etoposide	2.7 (active)	0.82	0.55	-0.68
CCDC59	LIM1215 cells with vorinostat	1.9 (active)	0.77	-0.26	-1.05
CCDC59	SW480 cells with etoposide	3.11 (active)	0.83	0.8	-0.26
CCDC59	SW480 cells with vorinostat	1.57	0.8	-0.29	-0.53
CCDC59	SW620 cells with etoposide	1.69 (active)	0.9	1.22	0.12
CCDC59	SW620 cells with vorinostat	1.36	0.95	0	0.26
CCDC59	vorinostat-resistant HCT116 cells with etoposide	2.48 (active)	0.84	0.99	-0.56
CCDC59	vorinostat-resistant HCT116 cells with vorinostat	1.66 (active)	0.79	-0.54	-0.78
CNOT1	LIM1215 cells with etoposide	9.14 (active)	1.12	7.4	1.29
CNOT1	LIM1215 cells with vorinostat	4.01 (active)	1.2	2.46	2.08
CNOT1	SW480 cells with etoposide	4.41	0.69	1.85	-1.17
CNOT1	SW480 cells with vorinostat	1.48	0.46	-0.46	-2.67
CNOT1	SW620 cells with etoposide	1.54	0.89	0.89	-0.04
CNOT1	SW620 cells with vorinostat	1.82 (active)	0.87	1.25	-0.29
CNOT1	vorinostat-resistant HCT116 cells with etoposide	5.67 (active)	1.12	5.22	1.16
CNOT1	vorinostat-resistant HCT116 cells with vorinostat	6.02 (active)	0.97	4.7	0.32
DDX19B	LIM1215 cells with etoposide	7.05	0.88	5.27	-0.25
DDX19B	LIM1215 cells with vorinostat	5.29	1	4.14	0.58
DDX19B	SW480 cells with etoposide	4.7 (active)	0.86	2.04	-0.01
DDX19B	SW480 cells with vorinostat	2 (active)	1.08	0.64	1.21
DDX19B	SW620 cells with etoposide	0.84	1.01	-0.74	1.18
DDX19B	SW620 cells with vorinostat	1.6 (active)	1.19	0.66	2.01
DDX19B	vorinostat-resistant HCT116 cells with etoposide	4.8 (active)	0.81	3.98	-0.74
DDX19B	vorinostat-resistant HCT116 cells with vorinostat	3.62 (active)	0.71	1.79	-1.27
ZNF441	LIM1215 cells with etoposide	2.38 (active)	1.06	0.4	0.96
ZNF441	LIM1215 cells with vorinostat	1.72 (active)	0.78	-0.52	-0.98
ZNF441	SW480 cells with etoposide	0.95	0.97	-0.84	0.6
ZNF441	SW480 cells with vorinostat	1.64 (active)	0.98	-0.13	0.68
ZNF441	SW620 cells with etoposide	1.36	0.9	0.45	0.16
ZNF441	SW620 cells with vorinostat	1.35	0.88	0.01	-0.2
ZNF441	vorinostat-resistant HCT116 cells with etoposide	1.02	0.97	-0.9	0.24
ZNF441	vorinostat-resistant HCT116 cells with vorinostat	2.01 (active)	0.92	-0.18	0.01
POLR2L	LIM1215 cells with etoposide	1.2	0.78	-0.93	-0.96
POLR2L	LIM1215 cells with vorinostat	1.74 (active)	0.81	-0.45	-0.76
POLR2L	SW480 cells with etoposide	1.57	0.8	-0.35	-0.42
POLR2L	SW480 cells with vorinostat	1.48 (active)	0.74	-0.51	-0.85
POLR2L	SW620 cells with etoposide	1.03	0.76	-0.34	-1.35
POLR2L	SW620 cells with vorinostat	1.52	0.79	0.5	-0.86
POLR2L	vorinostat-resistant HCT116 cells with etoposide	1.91 (active)	0.74	0.22	-1.14
POLR2L	vorinostat-resistant HCT116 cells with vorinostat	3.16 (active)	0.74	1.19	-1.08
TGM5	LIM1215 cells with etoposide	1.21	1.07	-0.91	1
TGM5	LIM1215 cells with vorinostat	1.35	0.9	-0.96	-0.11
TGM5	SW480 cells with etoposide	1.12	0.97	-0.7	0.66
TGM5	SW480 cells with vorinostat	1.6 (active)	0.94	-0.23	0.35
TGM5	SW620 cells with etoposide	0.82	0.98	-0.81	0.94
TGM5	SW620 cells with vorinostat	1.03	0.91	-0.92	-0.03
TGM5	vorinostat-resistant HCT116 cells with etoposide	1.16	1.01	-0.76	0.44
TGM5	vorinostat-resistant HCT116 cells with vorinostat	1.73 (active)	1.08	-0.49	1.04
POLR2D	LIM1215 cells with etoposide	2.85	0.82	0.68	-0.66
POLR2D	LIM1215 cells with vorinostat	2.17 (active)	0.86	0.05	-0.44
POLR2D	SW480 cells with etoposide	5.87 (active)	0.77	2.98	-0.63
POLR2D	SW480 cells with vorinostat	2.36 (active)	0.64	1.39	-1.54
POLR2D	SW620 cells with etoposide	1.58	0.87	1.02	-0.18
POLR2D	SW620 cells with vorinostat	1.81 (active)	0.73	1.26	-1.31
POLR2D	vorinostat-resistant HCT116 cells with etoposide	3.34 (active)	0.83	2.16	-0.57
POLR2D	vorinostat-resistant HCT116 cells with vorinostat	4.05 (active)	0.8	2.36	-0.78

Ordered by “caspase ratio to mock” (lowest first): 6 of the entries above
gene symbol	cell line and drug panel	caspase ratio to mock	viability ratio to mock	caspase robust z-score	viability robust z-score
DDX19B	SW620 cells with etoposide	0.84	1.01	-0.74	1.18
DDX19B	SW620 cells with vorinostat	1.6 (active)	1.19	0.66	2.01
DDX19B	SW480 cells with vorinostat	2 (active)	1.08	0.64	1.21
ZNF441	LIM1215 cells with etoposide	2.38 (active)	1.06	0.4	0.96
DDX19B	vorinostat-resistant HCT116 cells with vorinostat	3.62 (active)	0.71	1.79	-1.27
DDX19B	vorinostat-resistant HCT116 cells with etoposide	4.8 (active)	0.81	3.98	-0.74
